From PubChem BioAssay AID493014 (National Center for Advancing Translational Sciences (NCATS), 2011)
Out of some 340,000 compounds screened, about 170 (0.05%) were called active. This list was built around the results that the source calls inconclusive (neither active nor inactive); the mix of calls is not that of the screen. The call rests on the fitted dose curve; in most records, active means well fitted inhibition curve with a large enough effect in the signal ratio, with a control signal flat (not every such curve was filed as active); inconclusive means small, poorly fitted or top-dose-only effect, or effect the other way, or a change in a side signal; inactive means flat fitted curve, though single readings scatter; the % refers to the signal ratio. Potencies beside an inconclusive call are fits to weak or partial responses and may not hold up.

test: qHTS Assay to Find Inhibitors of Chronic Active B-Cell Receptor Signaling; details: ABC-DLBCL IkBa-CBG/CBR reporter, luminescence ratio (green luciferase fused to IkBa over red control in TMD8 lymphoma cells), 4 h; activity change, negative = inhibition: at 46.1 µM (top of the series) unless noted;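 on activity change, negative = inhibition: plate controls were basal doxycycline-induced cells for no effect and cells given 10 µM MG132 for full effect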
How it was run: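 TMD8 human ABC-DLBCL cells with doxycycline-inducible IκBα–green luciferase fusion and unfused red luciferase, in 0.5% FBS medium; compounds up to 46 uM, 4 h at 37C. Green/red luminescence ratio, filter-overlap corrected, fitted to concentration-response curves.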
Potency means the concentration at half of the fitted maximal effect.

Compound | Potency | activity change, negative = inhibition
CCOC(=O)/C(=C/c1c(C)n(C)c2ccc([N+](=O)[O-])cc12)C(C)=O | inconclusive: 20.6 µM [falling, single point] | 
CN(C)CCn1c2c(c(SCC(=O)Nc3cccc4ccccc34)nc1=O)CCCC2 | inconclusive: 25.9 µM [falling, single point] | 
CCOC(=O)C/C(C)=N/NC(=O)COc1ccccc1C |  | inactive: 3.86%
O=C(NNC(=O)c1ccc2c(=O)n3c(nc2c1)CCC3)c1cccc(Cl)c1 | inconclusive: 29.1 µM [falling, partial curve, poor fit] | 
Nc1nc(CSc2ncccn2)nc(Nc2ccccc2)n1 |  | inactive: 24.3%
CCN(CC)C(=O)Cn1cc(C(=O)C(=O)N2CCc3ccccc32)c2ccccc21 | inconclusive: 10 µM [falling, partial curve] | 
CC(Oc1ccc2c(-c3ccccc3)cc(=O)oc2c1)C(=O)N1CCOCC1 (stereo not given) |  | inconclusive: -0.98%
Cc1ccc(C(=O)c2cc3c(cc2[N+](=O)[O-])OCCO3)cc1 |  | inactive: -2.38%
Cc1ccc(S(=O)(=O)N/N=C/c2c[nH]c3ccccc23)cc1 | inconclusive: 14.1 µM [falling, single point] | 
CCSc1nc2cc(OC)c(OC)cc2c(=O)n1CC |  | inconclusive: 4.15%
N/C(=N\O)c1ccc(N2CCN(c3ncccc3C(F)(F)F)CC2)nc1 |  | inactive: -15%
COc1cc2c(cc1NC(=O)COC(=O)[C@@H](NS(=O)(=O)c1ccccc1)C(C)C)oc1ccccc12 |  | inconclusive: 10.3%
CC1(c2ccc(OC(F)F)cc2)NC(=O)N(CC(=O)Nc2cccnc2Cl)C1=O (stereo not given) | inconclusive: 20.6 µM [falling, single point] | 
OCCC1CN(Cc2nc3ccccc3s2)CCN1C1CCCC1 (stereo not given) |  | inconclusive: 13%
CCC(=O)Nc1cc(C(=O)O)ccc1S(=O)(=O)c1ccc(C)cc1 |  | inactive: -4.97%
COc1ccc(CCNc2nc(-c3ccc(NC(C)=O)cc3)cs2)cc1OC |  | inactive: 0.613%
O=C(Cn1cc(C(=O)c2cccs2)c2ccccc21)NC1CCCCC1 |  | inactive: 1.69%
COC(=O)c1cc2ccsc2n1Cc1cccc(F)c1 |  | inconclusive: -2.32%
CCOC(=O)C1C2C=CC3(CN(Cc4ccccc4)C(=O)C13)O2 (stereo not given) | inconclusive: 0.355 µM [rising, full curve, poor fit] | 
CCCCc1ccc(NC(=O)C2CCCO2)cc1 (stereo not given) | inconclusive: 23.1 µM [falling, single point] | 

Sorted by number of heavy atoms (descending): some entries from above.
Compound | Potency | activity change, negative = inhibition
COc1ccc(CCNc2nc(-c3ccc(NC(C)=O)cc3)cs2)cc1OC |  | inactive: 0.613%
COC(=O)c1cc2ccsc2n1Cc1cccc(F)c1 |  | inconclusive: -2.32%
CCCCc1ccc(NC(=O)C2CCCO2)cc1 (stereo not given) | inconclusive: 23.1 µM [falling, single point] | 

More compounds

Compound | Potency | activity change, negative = inhibition
CCOC(=O)c1sc(NC(=O)c2ccc(S(=O)(=O)N(C)C)cc2)cc1C | inconclusive: 25.9 µM [falling, single point] | 
Cn1c(-c2ccc(C(C)(C)C)cc2)n[nH]c1=S |  | inconclusive: -12%
O=C(Nc1ccc(Cl)cc1)C1=Cc2cc(Cl)ccc2OC1 |  | inconclusive: 0.76%
CCOc1ccc(C2NC(=O)CCC2[N+](=O)[O-])cc1 (stereo not given) |  | inactive: 1.05%
CC(=O)Nc1ccc(S(=O)(=O)N[C@@H](C)C(=O)OCc2ccc(Cl)cc2)cc1 |  | inconclusive: 2.86%
S=C(NCc1ccco1)NCC1CCCO1 (stereo not given) |  | inactive: 1.59%
Nc1c(C(=O)NCC2CCCO2)sc2nc3c(c(-c4ccco4)c12)CC/C3=C\c1ccco1 (stereo not given) |  | inconclusive: 9.09%
Cc1ccc(CSCc2ccc(C(=O)NCCC(C)C)o2)cc1 |  | inactive: -2.04%
Cn1c(N)c(C(=O)Nc2ccccc2F)sc1=S | inconclusive: 22.4 µM [falling, partial curve, poor fit] | 
O=C(c1cccc2c1-c1ccccc1C2)N1CCCCC1 |  | inconclusive: 3.24%
O=C(Nc1ccc(F)cc1F)c1ccc2ncsc2c1 | inconclusive: 35.5 µM [rising, single point] | 
COc1ccc(-n2c(=O)/c(=C\c3cccs3)s/c2=C(/C#N)C(=O)NCCN2CCOCC2)cc1 |  | inactive: -7.25%
CC1(C)NC(=O)N(CCCCOc2ccc(Cl)cc2C=O)C1=O | inconclusive: 25.1 µM [falling, single point] | 
Cc1csc(SCC(=O)Nc2c(C)n(C)n(-c3ccccc3)c2=O)n1 |  | inconclusive: 7.38%
OCCCc1nc2n(n1)C(c1ccccc1)C=C(c1ccc(F)cc1)N2 (stereo not given) |  | inconclusive: 8.51%
CN(CC(=O)Nc1ccc(F)cc1)C(=O)COC(=O)CSc1ccc(F)cc1 | inconclusive: 4.61 µM [falling, partial curve] | 
Cc1nn(-c2nnc(NC3CCCCC3)nn2)c(C)c1Br | inconclusive: 23.1 µM [falling, partial curve, poor fit] | 
COC(=O)c1ccc2c(=O)n(CCCCCC(=O)N3CCN(c4cccc(C)c4C)CC3)c(=O)[nH]c2c1 |  | inconclusive: -15.9%
COc1ccc(/C=N/NC(=O)c2cccc(NC(=O)c3ccc(F)cc3)c2)c(C(=O)O)c1OC | inconclusive: 5.01 µM [falling, partial curve] | 
COc1cccc(NC(=O)C2CCCN2C(=O)Nc2cccc(F)c2)c1 (stereo not given) |  | inconclusive: 17.9%
